# Laboratory results as given in patent publication US5420288A, “Electroluminescent device comprising oxadiazole compounds luminescent material, oxadiazole compounds for the device, and method of producing oxadiazole compounds” (Ricoh Company, Ltd., priority 1992, dated 1995).
# Some entries repeat one wording, which the source may state once for all of them.
# Legend:
# [1] = Electroluminescent device with diamine derivative (37) hole-transporting layer and Al electrode, preserved at room temperature, Application Example II-1 and Comparative Example II-1; details: for light emission after preservation: room temperature, one month
# [2] = Three-layered electroluminescent device (ITO / triphenyl amine (19) / compound (26) electroluminescent layer / electron-transporting layer varied / Mg-Ag), Examples I-11, I-23 to I-34, Comparative I-3 to I-5; details: for luminance after continuous driving for one hour: constant current 30 mA/cm^2, one hour; for emission wavelength peak / color of light emission: electron-transporting layer material varied
# [3] = Three-layered electroluminescent device with electroluminescent layer compound varied and oxadiazole No. 78 electron-transporting layer, Examples I-12 to I-22; details: Table 8; for Luminance / Voltage: Current Density J = 30 mA/cm^2
# [4] = Electroluminescent device (ITO / triphenyl amine (19) hole-transporting layer / oxadiazole electroluminescent layer / Mg-Ag), Examples I-1 to I-5; details: for luminescent color: drive voltage of 20 V or less
# [5] = Electroluminescent device (ITO / stilbene derivative (20) hole-transporting luminescent layer / electron-transporting layer / Mg-Ag), Examples I-6, I-9, Comparative I-1, I-2; details: for color of light emission / emission wavelength peak: stilbene derivative (20) luminescent layer
# [6] = Electroluminescent device (ITO / compound (22) hole-transporting luminescent layer / electron-transporting layer / Mg-Ag), Example I-8
# [7] = Electroluminescent device (ITO / compound (25) hole-transporting luminescent layer / electron-transporting layer / Mg-Ag), Example I-10
# [8] = Electroluminescent device (ITO / stilbene derivative (5) electroluminescent layer / oxadiazole electron-transporting layer / Mg-Ag), Application Examples III-1 to III-5
# [9] = Table 9, Current Density J = 30 mA/cm^2
# [10] = constant current 30 mA/cm^2, one hour
compound,measurement,setting,value
"CCN(CC)c1ccc(-c2nnc(-c3ccc(C(=O)OC)cc3)o2)cc1 [(38), reference compound]",color of light emission,"[1]; 25 V, 50 mA/cm^2",green light emission
same,light emission after preservation,[1],the light emission was no longer observed
c1ccc2c(-c3nnc(-c4ccc(CCc5ccc(-c6nnc(-c7cccc8ccccc78)o6)cc5)cc4)o3)cccc2c1 [compound 23],Luminance,[2]; [9],10 cd/m^2
same,Voltage,[2]; [9],12.0 V
COc1ccc(-c2nnc(-c3ccc(C(c4ccc(-c5nnc(-c6ccc(OC)cc6)o5)cc4)(C(F)(F)F)C(F)(F)F)cc3)o2)cc1 [compound 79],Luminance,[2]; [9],640 cd/m^2
same,Voltage,[2]; [9],10.2 V
COc1ccccc1-c1nnc(-c2ccc(C(c3ccc(-c4nnc(-c5ccccc5OC)o4)cc3)(C(F)(F)F)C(F)(F)F)cc2)o1 [compound 93],Luminance,[2]; [9],420 cd/m^2
same,Voltage,[2]; [9],14.3 V
CC(C)(C)c1ccc(N(c2cccc(N(c3ccc(C(C)(C)C)cc3)c3ccc4ccc5cccc6ccc3c4c56)c2)c2ccc3ccc4cccc5ccc2c3c45)cc1 [(36)],Wavelength at Luminescent Peak,[3],480 nm
same,Luminance,[3],800 cd/m^2
same,Voltage,[3],11.2 V
CCC(C)c1ccc(N(c2cc(C)cc(N(c3ccc(C(C)CC)cc3)c3ccc4ccc5cccc6ccc3c4c56)c2)c2ccc3ccc4cccc5ccc2c3c45)cc1 (stereo not shown) [(33)],Wavelength at Luminescent Peak,[3],480 nm
same,Luminance,[3],620 cd/m^2
same,Voltage,[3],6.2 V
CC(C)(C)c1ccc(-c2nnc(-c3ccc(-c4ccc(CCOCCc5ccc(-c6ccc(-c7nnc(-c8ccc(C(C)(C)C)cc8)o7)cc6)cc5)cc4)cc3)o2)cc1 [compound 44],luminescent color,[4],blue violet
Cc1ccc(N(c2ccc(-c3ccc(N(c4ccc(C)cc4)c4ccc5ccc6cccc7ccc4c5c67)cc3)cc2)c2ccc3ccc4cccc5ccc2c3c45)cc1 [(35)],Wavelength at Luminescent Peak,[3],508 nm
same,Luminance,[3],420 cd/m^2
same,Voltage,[3],8.6 V
FC(F)(F)C(c1ccc(-c2nnc(-c3ccccc3-c3ccccc3)o2)cc1)(c1ccc(-c2nnc(-c3ccccc3-c3ccccc3)o2)cc1)C(F)(F)F [compound 92],Luminance,[2]; [9],568 cd/m^2
same,Voltage,[2]; [9],13.5 V
COc1cccc(N(c2cccc(N(c3cccc(OC)c3)c3ccc4ccc5cccc6ccc3c4c56)c2)c2ccc3ccc4cccc5ccc2c3c45)c1 [(34)],Wavelength at Luminescent Peak,[3],488 nm
same,Luminance,[3],561 cd/m^2
same,Voltage,[3],9.5 V
FC(F)(F)C(c1ccc(-c2nnc(-c3ccc4ccccc4c3)o2)cc1)(c1ccc(-c2nnc(-c3ccc4ccccc4c3)o2)cc1)C(F)(F)F [compound 91],Luminance,[2]; [9],840 cd/m^2
same,Voltage,[2]; [9],12.5 V
COc1ccccc1N(c1cccc(N(c2ccccc2OC)c2ccc3ccc4cccc5ccc2c3c45)c1)c1ccc2ccc3cccc4ccc1c2c34 [(28)],Wavelength at Luminescent Peak,[3],494 nm
same,Luminance,[3],400 cd/m^2
same,Voltage,[3],6.2 V
CC(C)Cc1ccc(N(c2cccc(N(c3ccc(CC(C)C)cc3)c3ccc4ccc5cccc6ccc3c4c56)c2)c2ccc3ccc4cccc5ccc2c3c45)cc1 [(32)],Wavelength at Luminescent Peak,[3],477 nm
same,Luminance,[3],375 cd/m^2
same,Voltage,[3],6.9 V
Clc1ccc(-c2nnc(-c3ccc(CCc4ccc(-c5nnc(-c6ccc(Cl)cc6)o5)cc4)cc3)o2)cc1 [compound 27],Luminance,[2]; [9],15 cd/m^2
same,Voltage,[2]; [9],20.0 V
FC(F)(F)C(c1ccc(-c2nnc(-c3ccc(-c4ccccc4)cc3)o2)cc1)(c1ccc(-c2nnc(-c3ccc(-c4ccccc4)cc3)o2)cc1)C(F)(F)F [compound 78],Luminance,"[5]; 12.5 V, current density of 100 mA/cm^2",2000 cd/m^2
same,luminance after continuous driving for one hour,[5]; [10],100 cd/m^2
same,Voltage,[5]; current density of 100 mA/cm^2,12.5 V
same,color of light emission,[5],clear green light emission
same,emission wavelength peak,[5],515 nm
same,Luminance,"[6]; 20 V, 10 mA/cm^2",40 cd/m^2
same,color of light emission,"[6]; 20 V, 10 mA/cm^2",clear blue light emission
same,emission wavelength peak,"[6]; 20 V, 10 mA/cm^2",464 nm
same,Voltage,[6]; current density of 10 mA/cm^2,20 V
same,drive voltage after continuous driving for one hour,"[7]; 30 mA/cm^2, one hour",24 V
same,luminous efficiency with time,"[7]; 30 mA/cm^2, one hour",luminous efficiency was increased with time
same,luminance after continuous driving for one hour,"[7]; 30 mA/cm^2, one hour, drive voltage of 24 V",215 cd/m^2
same,Luminance,"[7]; initial, constant current 30 mA/cm^2",8 cd/m^2
same,Luminance,"[2]; 6.4 V, 30 mA/cm^2, Example I-11",640 cd/m^2
same,luminance after continuous driving for one hour,[2],300 cd/m^2
same,direct voltage,"[2]; current density of 30 mA/cm^2, Example I-11",6.4 V
same,emission wavelength peak,[2],475 nm
same,Luminance,"[1]; 25 V, 50 mA/cm^2",400 cd/m^2
same,color of light emission,"[1]; 25 V, 50 mA/cm^2",clear white light emission
same,emission wavelength peak (first),"[1]; 25 V, 50 mA/cm^2",537 nm
same,emission wavelength peak (second),"[1]; 25 V, 50 mA/cm^2",407 nm
same,drive voltage,[1]; current density of 50 mA/cm^2,25 V
same,light emission after preservation,[1],the same clear light emission was observed
COc1ccc(-c2nnc(-c3ccc(CCc4ccc(-c5nnc(-c6ccc(OC)cc6)o5)cc4)cc3)o2)cc1 [compound 26],Luminance,[2]; [9],25 cd/m^2
same,Voltage,[2]; [9],16.0 V
FC(F)(F)C(c1ccc(-c2nnc(-c3cccc4ccccc34)o2)cc1)(c1ccc(-c2nnc(-c3cccc4ccccc34)o2)cc1)C(F)(F)F [compound 89],Luminance,[2]; [9],670 cd/m^2
same,Voltage,[2]; [9],10.5 V
Cc1ccccc1-c1nnc(-c2ccc(C(c3ccc(-c4nnc(-c5ccccc5C)o4)cc3)(C(F)(F)F)C(F)(F)F)cc2)o1 [compound 70],Luminance,[2]; [9],660 cd/m^2
same,Voltage,[2]; [9],12.8 V
"CC(C)(C)c1ccc(-c2nnc(-c3ccc(-c4nnc(-c5ccc(C(C)(C)C)cc5)o4)cc3)o2)cc1 [(24), reference compound]",luminance after continuous driving for one hour,[5]; [10],≤ 50 cd/m^2
same,color of light emission,[5],clear green light emission
same,emission wavelength peak,[5],522 nm
same,luminance after continuous driving for one hour,[2],≤ 60 cd/m^2
same,color of light emission,[2],clear blue green light emission
same,emission wavelength peak,[2],483 nm
Cc1ccc(N(c2ccc(C3(c4ccc(N(c5ccc(C)cc5)c5ccc6ccc7cccc8ccc5c6c78)cc4)c4ccccc4-c4ccccc43)cc2)c2ccc3ccc4cccc5ccc2c3c45)cc1 [(25)],Wavelength at Luminescent Peak,[3],512 nm
same,"Wavelength at Luminescent Peak, sub-peak",[3],485 nm
same,Luminance,[3],670 cd/m^2
same,Voltage,[3],6.7 V
Clc1ccc(C=Cc2nnc(-c3ccc(C=Cc4ccc(-c5nnc(C=Cc6ccc(Cl)cc6)o5)cc4)cc3)o2)cc1 [compound 13],luminescent color,[4],blue
CCN(CC)c1ccc(-c2nnc(C=Cc3ccc(C=Cc4nnc(-c5ccc(N(CC)CC)cc5)o4)cc3)o2)cc1 [compound 49],luminescent color,[4],blue green
Cc1ccc(-c2nnc(-c3ccc(C(c4ccc(-c5nnc(-c6ccc(C)cc6)o5)cc4)(C(F)(F)F)C(F)(F)F)cc3)o2)cc1 [compound 68],Luminance,[2]; [9],540 cd/m^2
same,Voltage,[2]; [9],11.0 V
"c1ccc(-c2ccc(-c3nnc(-c4cc(-c5nnc(-c6ccc(-c7ccccc7)cc6)o5)cc(-c5nnc(-c6ccc(-c7ccccc7)cc6)o5)c4)o3)cc2)cc1 [(27), reference compound]",color of light emission,[2],green light emission
same,emission wavelength peak,[2],499 nm
c1ccc(-c2ccc(-c3nnc(-c4ccc(CCc5ccc(-c6nnc(-c7ccc(-c8ccccc8)cc7)o6)cc5)cc4)o3)cc2)cc1 [(III-1-A)],color of light emission,[8]; drive voltage of 20 V or less,clear blue light
same,drive voltage at which light was emitted,[8]; electron-transporting layer material,≤ 20 V
Cc1ccc(N(c2cccc(N(c3ccc(C)cc3)c3ccc4ccc5cccc6ccc3c4c56)c2)c2ccc3ccc4cccc5ccc2c3c45)cc1 [(29)],Wavelength at Luminescent Peak,[3],487 nm
same,Luminance,[3],340 cd/m^2
same,Voltage,[3],7.0 V
C(=Cc1nnc(-c2ccccc2)o1)c1ccc(-c2ccc(C=Cc3nnc(-c4ccccc4)o3)cc2)cc1 [compound 57],luminescent color,[4],blue green
CCN(CC)c1ccc(-c2nnc(-c3ccc(Oc4ccc(-c5nnc(-c6ccc(N(CC)CC)cc6)o5)cc4)cc3)o2)cc1 [compound 2],luminescent color,[4],clear blue light
same,drive voltage at which light was emitted,[4]; electroluminescent layer material,≤ 20 V
CCCCc1ccc(N(c2cccc(N(c3ccc(CCCC)cc3)c3ccc4ccc5cccc6ccc3c4c56)c2)c2ccc3ccc4cccc5ccc2c3c45)cc1 [(31)],Wavelength at Luminescent Peak,[3],485 nm
same,Luminance,[3],610 cd/m^2
same,Voltage,[3],7.2 V
"CC(C)(C)c1ccc(-c2nnc(-c3ccc(-c4ccccc4)cc3)o2)cc1 [(23), reference compound]",light emission after continuous driving for one hour,[5]; [10],no light emission was observed any longer
same,color of light emission,[5],clear green light emission
same,emission wavelength peak,[5],520 nm
same,luminance after continuous driving for one hour,[2],≤ 20 cd/m^2
same,color of light emission,[2],clear blue green light emission
same,emission wavelength peak,[2],485 nm
c1ccc(-c2ccc(-c3nnc(-c4ccc(CCc5ccc(-c6nnc(-c7ccc(-c8ccccc8)cc7)o6)cc5)cc4)o3)cc2)cc1 [compound 25],Luminance,"[5]; 11.2 V, current density of 30 mA/cm^2",230 cd/m^2
same,emission spectrum center,[5]; Example I-6,520 nm
same,drive voltage,[5]; current density of 30 mA/cm^2,11.2 V
same,color of light emission,[5],green light
same,Luminance,[2]; [9],20 cd/m^2
same,Voltage,[2]; [9],18.0 V
FC(F)(F)C(c1ccc(-c2nnc(-c3ccc(Cl)cc3)o2)cc1)(c1ccc(-c2nnc(-c3ccc(Cl)cc3)o2)cc1)C(F)(F)F [compound 71],Luminance,[2]; [9],330 cd/m^2
same,Voltage,[2]; [9],12.6 V
COc1ccc(N(c2cccc(N(c3ccc(OC)cc3)c3ccc4ccc5cccc6ccc3c4c56)c2)c2ccc3ccc4cccc5ccc2c3c45)cc1 [(30)],Wavelength at Luminescent Peak,[3],512 nm
same,Luminance,[3],750 cd/m^2
same,Voltage,[3],6.9 V
